# Several values for one entry are separate records, joined by “and”; a condition that tells them apart may be missing. Equal values may be shown once. Where a name gives a salt, the structure may show the parent alone. ± gives the standard deviation of the averaged measurements. This is one part of the list. Part of the spread comes from offsets between plates or batches.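 Culture-activated primary human stellate myofibroblasts, where regained lipid droplets signal inactivation. Value: share of Hoechst-counted cells above a per-plate Bodipy cutoff, in duplicate wells, with DMSO negative and nortriptyline positive controls on each plate. Hits: a control-normalized score above the plate's top-tenth-percentile nortriptyline wells, or one of a plate's three best wells. Final well concentrations are not given.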
# Test system: primary human hepatic stellate cells (donor 1)
# Assay: percent Bodipy-positive cells; higher = more lipid droplet accumulation
# Conditions: 48 h
# [1] = library stock concentration: 3.33 mM
# [2] = library stock concentration: 10 mM
# [3] = library stock concentration: 1 mM
# [4] = library stock concentration: 6 mM
smiles,measurement,setting,value
O=S(=O)(CC1CS1)c1ccc(Oc2ccccc2)cc1 (configuration not stated),percent Bodipy-positive cells,[1],30.3 ± 3.6%
same,percent Bodipy-positive cells,[2],42.2 ± 11%
C[C@H](Cc1ccc(OCC(=O)O)cc1)NC[C@H](O)c1cccc(Cl)c1,percent Bodipy-positive cells,[2],6.14 ± 0.11%
CC(=O)N(C)c1cccc(-c2ccnc3c(C(=O)c4cccs4)cnn23)c1 [Indiplon],percent Bodipy-positive cells,[2],8.87 ± 1.4%
CN1[C@@H]2CCC[C@H]1CC(=O)C2 [Pseudopelletierine hydrochloride],percent Bodipy-positive cells,,37.9 ± 9.8%
C=C(C)[C@H]1CN[C@H](C(=O)O)[C@H]1CC(=O)O [(-)-(.alpha.)-Kainic Acid (hydrate)],percent Bodipy-positive cells,[3],7.15 ± 2.7%
CN1C2CCC1CC(OC(c1ccc(F)cc1)c1ccc(F)cc1)C2.Cl (configuration not stated),percent Bodipy-positive cells,[2],77.4 ± 3.2%
O=C(N[C@H]1CN2CCC1CC2)c1cc2ccoc2cn1,percent Bodipy-positive cells,[2],37 ± 2.4%
C[C@H](N)Cc1cnc[nH]1 [(S)-(+)-a-Methylhistamine dihydrobromide],percent Bodipy-positive cells,[2],5.81 ± 1.8%
Cc1cc(O)ccc1Cl [Chlorocresol],percent Bodipy-positive cells,[1],8.31 ± 3.4%
same,percent Bodipy-positive cells,library stock concentration: 14 mM,3.71 ± 0.96%
c1ccc(CCCCN2CCC(c3ccccc3)CC2)cc1 [4-PPBP maleate],percent Bodipy-positive cells,[2],63.4 ± 4.2%
"O=[N+]([O-])c1ccc2nc(N3CCNCC3)ccc2c1 [Quipazine, 6-nitro-, maleate]",percent Bodipy-positive cells,[2],64.9 ± 2.7%
COc1cc(C=Cc2ccc(OC)c(O)c2)cc(OC)c1,percent Bodipy-positive cells,[3],49.1 ± 7.1%
C=C[C@H]1CN2CC[C@H]1C[C@H]2[C@H](OC(=O)OCC)c1ccnc2ccc(OC)cc12 [Quinine ethyl carbonate],percent Bodipy-positive cells,library stock concentration: 5 mM,8.45 ± 8.3%
same,percent Bodipy-positive cells,[2],60.5 ± 11%
CN1Cc2ccccc2[C@@H]2c3cccc4[nH]cc(c34)C[C@H]21,percent Bodipy-positive cells,[2],41.7 ± 4.4%
CCCCC[C@@H](/C=C/C=C\CCCCCCCC(=O)O)OO,percent Bodipy-positive cells,library stock concentration: 100 uM,7.75 ± 7.6%
CC(C)[C@@H]1NC(=O)[C@H](C)OC(=O)[C@@H](C(C)C)NC(=O)[C@@H](C(C)C)OC(=O)[C@H](C(C)C)NC(=O)[C@H](C)OC(=O)[C@@H](C(C)C)NC(=O)[C@@H](C(C)C)OC(=O)[C@H](C(C)C)NC(=O)[C@H](C)OC(=O)[C@@H](C(C)C)NC(=O)[C@@H](C(C)C)OC1=O [Valinomycin],percent Bodipy-positive cells,library stock concentration: 4.5 mM,72 ± 20%
N#Cc1ccc(N2CCN(C(=O)COc3ccc4[nH]cc(CCN)c4c3)CC2)cc1 [Donitriptan hydrochloride],percent Bodipy-positive cells,[2],7.56 ± 0.86%
"CN(C(=O)Cc1ccc(Cl)c(Cl)c1)[C@H](CN1CCCC1)c1ccccc1.Cl [ICI-199,441 hydrochloride]",percent Bodipy-positive cells,[2],93.8 ± 2.4%
C[C@]12CC[C@H]3[C@@H](CCC4=CC(=O)CC[C@@H]43)[C@@H]1CC[C@@H]2O [Nandrolone],percent Bodipy-positive cells,,25.6 ± 2.2%
C[C@]12CC[C@H]3[C@@H](CCC4=CC(=O)CC[C@@H]43)[C@@H]1CC[C@@H]2O [19-Nortestosterone],percent Bodipy-positive cells,[2],34.3 ± 2.6%
CCCCC/C=C\C/C=C\C/C=C\C/C=C\CCCC(=O)Nc1ccc(O)cc1C,percent Bodipy-positive cells,[3],21.7 ± 8.7%
COc1ccc(CN2CCNCC2)c(OC)c1OC [Trimetazidine dihydrochloride],percent Bodipy-positive cells,,30.17 ± 0.11%
COc1ccc2c(c1)c(CCN1CCOCC1)c(C)n2C(=O)c1cccc(Cl)c1Cl,percent Bodipy-positive cells,[2],29.1 ± 3.3%
c1cc2c(cc1[C@H]1OC[C@H]3[C@@H]1CO[C@@H]3c1ccc3c(c1)OCO3)OCO2 [Sesamin],percent Bodipy-positive cells,[1],7.96 ± 1.4%
same,percent Bodipy-positive cells,[2],13.1 ± 2.1%
c1ccc2c(N3CCNCC3)cccc2c1 [1-(1-Naphthyl)piperazine hydrochloride],percent Bodipy-positive cells,[2],62.9 ± 6.5%
CC[C@H]1CN2CC[C@H]1C[C@@H]2[C@@H](O)c1ccnc2ccc(OC)cc12 [Hydroquinidine],percent Bodipy-positive cells,[2],42.6 ± 25%
CC[C@@]1(O)C[C@H](O[C@H]2C[C@H](N(C)C)[C@H](O)[C@H](C)O2)c2c(cc3c(c2O)C(=O)c2c(O)cccc2C3=O)[C@H]1C(=O)OC [Aklavine hydrochloride],percent Bodipy-positive cells,[2],79.9 ± 4%
O=[N+]([O-])/C=C/c1ccc2c(c1)OCO2 [Syk Inhibitor III],percent Bodipy-positive cells,[1],81.8 ± 13%
CC(C)N(CCC(C(N)=O)(c1ccccc1)c1ccccn1)C(C)C (configuration not stated) [Disopyramide],percent Bodipy-positive cells,,34.3 ± 21%
same,percent Bodipy-positive cells,[2],36.9 ± 8.5%
N=C(N)NN,percent Bodipy-positive cells,[2],38.9 ± 17%
N=C(N)NN [Aminoguanidine hemisulfate],percent Bodipy-positive cells,[2],49.2 ± 18%
Clc1ccc(C2CC3CCC2N3)cn1 (configuration not stated),percent Bodipy-positive cells,library stock concentration: 24 mM,19.9 ± 0.81%
C[C@H](N)[C@H](O)c1ccc(O)c(O)c1 [Levonordefrin],percent Bodipy-positive cells,,9.48 ± 4.3%
same,percent Bodipy-positive cells,[2],21.7 ± 0.58%
same,percent Bodipy-positive cells,library stock concentration: 10.9 mM,2.14 ± 1.2%
CCCCCCC[n+]1ccc(-c2cc[n+](CCCCCCC)cc2)cc1 [DHBP dibromide],percent Bodipy-positive cells,[2],7.48 ± 2.4%
C=CCN1C[C@H](C)N([C@H](c2ccc(C(=O)N(CC)CC)cc2)c2cccc(OC)c2)C[C@H]1C,percent Bodipy-positive cells,[2],51.8% and 33.2%
C=CCN1C[C@H](C)N([C@H](c2ccc(C(=O)N(CC)CC)cc2)c2cccc(O)c2)C[C@H]1C,percent Bodipy-positive cells,[2],17.8 ± 8.3%
N[C@@H](Cc1ccc(N(CCCl)CCCl)cc1)C(=O)O [Melphalan],percent Bodipy-positive cells,library stock concentration: 6.6 mM,11.5% and 5.07%
Clc1ccc(C2=CCCC3CCC2N3)cn1 (configuration not stated) [UB 165 fumarate],percent Bodipy-positive cells,[2],11 ± 1.3%
CC(C)=CCOc1c2occc2cc2ccc(=O)oc12 [Imperatorin],percent Bodipy-positive cells,[2],41.4% and 24.9%
CCN1C[C@]2(C)CC[C@H](OC)[C@@]34C1[C@]1(OCO[C@@]15C[C@H](OC)[C@H]1C[C@]3(O)[C@@H]5[C@H]1OC)[C@@H](OC(C)=O)[C@H]24 [Deltaline],percent Bodipy-positive cells,,9.8 ± 2.4%
CC(Cc1ccc(OCC(=O)O)cc1)NCC(O)c1cccc(Cl)c1 (configuration not stated),percent Bodipy-positive cells,[2],36.9 ± 0.37%
OC1CCCCC1N1CCC(c2ccccc2)CC1 (configuration not stated) [Vesamicol hydrochloride],percent Bodipy-positive cells,library stock concentration: 6.8 mM,19.7 ± 1.1%
same,percent Bodipy-positive cells,[2],42.9 ± 4.9%
C[C@H]1O[C@H](O[C@H]2[C@H](O)[C@@H](O)[C@@H](O)[C@H](O)[C@@H]2O)[C@@H](N)C[C@@H]1NC(=N)C(=O)O [Kasugamycin hydrochloride],percent Bodipy-positive cells,[2],19.8 ± 3.9%
C[C@H]1O[C@H](O[C@H]2[C@H](O)[C@@H](O)[C@@H](O)[C@H](O)[C@@H]2O)[C@@H](N)C[C@@H]1NC(=N)C(=O)O [Kasugamycin],percent Bodipy-positive cells,library stock concentration: 5.3 mM,7.77 ± 1.9%
NCCc1ccc(S(=O)(=O)F)cc1,percent Bodipy-positive cells,[1],27.2 ± 1.1%
same,percent Bodipy-positive cells,[2],30 ± 3.1%
NCCc1ccc(S(=O)(=O)F)cc1 [4-(2-Aminoethyl)benzenesulfonyl fluoride hydrochloride],percent Bodipy-positive cells,[2],55.5 ± 11%
O=C1CN=C(c2ccccc2Cl)c2cc([N+](=O)[O-])ccc2N1 [Clonazepam],percent Bodipy-positive cells,library stock concentration: 6.3 mM,11.7 ± 1.7%
O=C(O)Cc1cccnc1C(=O)O [Homoquinolinic acid],percent Bodipy-positive cells,[2],7.13 ± 0.43%
CCCCC/C=C\C/C=C\C/C=C\C/C=C\CCCC(=O)N[C@@H](C)CO [S-1 Methanandamide],percent Bodipy-positive cells,[3],6.9 ± 2.4%
CN[C@@H]1C[C@@H](c2ccc(Cl)c(Cl)c2)c2ccccc21 [Indatraline hydrochloride],percent Bodipy-positive cells,[2],100% and 83.2%
"O=[N+]([O-])c1cc(O)c(O)c([N+](=O)[O-])c1 [3,5-Dinitrocatechol]",percent Bodipy-positive cells,[2],47.7 ± 11%
O=[N+]([O-])c1cc(O)c(O)c([N+](=O)[O-])c1,percent Bodipy-positive cells,[2],8.35 ± 1.7%
CCCCC/C=C\C/C=C\C/C=C\C/C=C\CCCC(=O)NCCS(=O)(=O)O [N-Arachidonoyl Taurine],percent Bodipy-positive cells,[3],7.956 ± 0.078%
CN(C)C(=O)C(CCN1CCC(O)(c2ccc(Cl)cc2)CC1)(c1ccccc1)c1ccccc1.Cl,percent Bodipy-positive cells,library stock concentration: 9.7 mM,100%
CN1[C@@H]2CC[C@H]1C[C@@H](OC(=O)[C@H](CO)c1ccccc1)C2 [Hyoscyamine (L)],percent Bodipy-positive cells,,20 ± 1.2%
CN1[C@@H]2CC[C@H]1C[C@@H](OC(=O)[C@H](CO)c1ccccc1)C2 [L-Hyoscyamine],percent Bodipy-positive cells,[2],29.7 ± 19%
CN1[C@@H]2CC[C@H]1C[C@@H](OC(=O)[C@H](CO)c1ccccc1)C2 [Hyoscyamine],percent Bodipy-positive cells,[1],8.9 ± 4.9%
same,percent Bodipy-positive cells,library stock concentration: 6.9 mM,2.84 ± 0.064%
same,percent Bodipy-positive cells,[2],15.1% and 26%
CN(C)CCN(C)CCc1ccc(Cl)c(Cl)c1 [BD 1047 dihydrobromide],percent Bodipy-positive cells,[2],50.1 ± 3.1%
Nc1nc(N)nc(NC2CC2)n1 [Cyromazine],percent Bodipy-positive cells,[1],11.3 ± 3.9%
same,percent Bodipy-positive cells,[2],52.42 ± 0.26%
Nc1nc(N)nc(NC2CC2)n1,percent Bodipy-positive cells,[2],28.68 ± 0.28%
Cc1ccc(-c2nc3ccc(C)cn3c2CC(=O)N(C)C)cc1 [Zolpidem],percent Bodipy-positive cells,[2],26.1 ± 7.2%
Cc1ccc(-c2nc3ccc(C)cn3c2CC(=O)N(C)C)cc1,percent Bodipy-positive cells,[2],12.2 ± 1.6%
C[C@H](N)CN1CCc2ccc(Br)cc21 [VER-3323 hemifumarate salt],percent Bodipy-positive cells,[2],84.166 ± 0.005%
COc1cc2c(cc1O)C(CCc1ccc(Cl)cc1)N(C)CC2.Cl (configuration not stated),percent Bodipy-positive cells,[2],62.9 ± 8.8%
N#Cc1nn(-c2c(Cl)cc(C(F)(F)F)cc2Cl)c(N)c1[S+]([O-])C(F)(F)F (configuration not stated) [Fipronil],percent Bodipy-positive cells,[2],41 ± 7.5%
O=C1C[C@@H]2OCC=C3CN4CC[C@]56c7ccccc7N1[C@H]5[C@H]2[C@H]3C[C@H]46 [Strychnine],percent Bodipy-positive cells,[4],15 ± 7.1%
same,percent Bodipy-positive cells,[2],23.9 ± 4%
O=C1C[C@@H]2OCC=C3CN4CC[C@]56c7ccccc7N1[C@H]5[C@H]2[C@H]3C[C@H]46 [Strychnine HCl],percent Bodipy-positive cells,[4],13.4 ± 2.1%
CC[N+](CC)(CCCNC1=CC(=O)C(NCCC[N+](CC)(CC)Cc2ccccc2)=CC1=O)Cc1ccccc1 [Benzoquinonium dibromide],percent Bodipy-positive cells,[2],5.39 ± 0.46%
CC(C)C[C@@H](N)C1(c2ccc(Cl)cc2)CCC1,percent Bodipy-positive cells,[2],62.3 ± 2.3%
CC[C@@]1(O)C(=O)OCc2c1cc1n(c2=O)Cc2cc3ccccc3nc2-1 [(S)-(+)-Camptothecin],percent Bodipy-positive cells,[2],59.3 ± 5%
CC[C@@]1(O)C(=O)OCc2c1cc1n(c2=O)Cc2cc3ccccc3nc2-1 [Camptothecin],percent Bodipy-positive cells,[1],12.5 ± 1.4%
same,percent Bodipy-positive cells,library stock concentration: 5.7 mM,10.6 ± 4.4%
"CC[C@@]1(O)C(=O)OCc2c1cc1n(c2=O)Cc2cc3ccccc3nc2-1 [Camptothecine (S,+)]",percent Bodipy-positive cells,,29.2 ± 10%
CN1c2ccccc2C(NCCCCCCC(=O)O)c2ccc(Cl)cc2S1(=O)=O (configuration not stated) [Tianeptine sodium],percent Bodipy-positive cells,[1],5.81 ± 3.6%
same,percent Bodipy-positive cells,[2],14.9 ± 6.5%
CN1c2ccccc2C(NCCCCCCC(=O)O)c2ccc(Cl)cc2S1(=O)=O (configuration not stated) [Tianeptine],percent Bodipy-positive cells,[2],4.2 ± 2.6%
C#C[C@]1(O)CC[C@H]2[C@@H]3CCC4=Cc5nc6nc7ccccc7n6cc5C[C@]4(C)[C@H]3CC[C@@]21C,percent Bodipy-positive cells,[2],35.5 ± 3.7%
COc1ccc(C[C@H]2NC[C@H](O)[C@H]2OC(C)=O)cc1 [Anisomycin],percent Bodipy-positive cells,[2],84.5 ± 1.7%
CCC(=O)O[C@@](Cc1ccccc1)(c1ccccc1)[C@@H](C)CN(C)C [Levopropoxyphene napsylate],percent Bodipy-positive cells,,24.8 ± 7.2%

# Not a retest: an excerpt of the list.
smiles,measurement,setting,value
Nc1nc(N)nc(NC2CC2)n1 [Cyromazine],percent Bodipy-positive cells,[2],52.42 ± 0.26%
Nc1nc(N)nc(NC2CC2)n1,percent Bodipy-positive cells,[2],28.68 ± 0.28%
